PubChem BioAssay AID652243, Drosophila RNAi Screening Center – 2013
Purpose: 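Fly regulators of androgen-dependent reporter output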 (primary screen). System: Drosophila S2R+ cells. Knock-down reagent: long dsRNA against Drosophila genes. Duration: 72 h (48 h, then 24 h hormone). Conditions: synthetic androgen R1881 at 10 nM for 24 h. Detection: 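Per-well raw luminescence of the androgen-driven firefly reporter and of the Renilla control, two replicates each, without normalisation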. Direction: firefly reporter light: higher = more light from androgen-responsive reporter; Renilla control light: higher = more constitutive control signal (cell number, transfection). Rule for the call: 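Hit when the log firefly-to-Renilla ratio dropped or increased by a fixed fold versus the mean of GFP or LacZ controls across duplicate plates; lowering cut given as 1.5 and as 3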. Meaning of the calls: active = hit: reporter lowered or raised; inactive = no hit.
The screen tested about 24,000 reagents; shown is a random part of those with a known target gene and a result. Of all reagents, 246 (1%) are marked active. 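Plates not normalised; calls are printed but the firefly/Renilla ratio behind them is not deposited; fold cut for lowering reported inconsistently.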 Raw values are not corrected between plates. Names joined by + are all predicted targets of the reagent. No sequences are given here. Not stated in the record: the amount of reagent.

target,dsRNA,"firefly reporter light, replicate 1","firefly reporter light, replicate 2","Renilla control light, replicate 1","Renilla control light, replicate 2",activity call
cactin,DRSC20576,2.54e5,1.28e5,6.79e5,3.64e5,inactive
Cyp304a1,DRSC16623,44498,51815,8.99e5,1.11e6,inactive
MFS15,DRSC06523,59813,87846,1.18e6,1.16e6,inactive
MFS15,DRSC28274,3.36e5,7.50e5,8.70e5,1.41e6,inactive
CG18870,DRSC04313,2.64e5,2.06e5,1.40e6,1.07e6,inactive
Nep2,DRSC12126,36808,49292,4.22e5,3.38e5,inactive
Nep2,DRSC21398,6.09e5,6.11e5,1.46e6,1.30e6,inactive
wapl,DRSC18851,86809,95354,5.93e5,6.62e5,inactive
wapl,DRSC27941,7.93e5,4.31e5,3.66e6,1.49e6,inactive
Arp2,DRSC19332,4.33e5,4.96e5,2.33e6,2.47e6,inactive
hoip,DRSC03546,88569,90167,3.45e5,2.99e5,inactive
CG12971,DRSC11681,2.04e5,1.58e5,2.57e6,2.40e6,inactive
CG12971,DRSC23893,6.78e5,8.11e5,1.27e6,1.31e6,inactive
qkr58E-3,DRSC04711,7.93e5,7.05e5,9.60e5,1.12e6,inactive
CG32188,DRSC09510,2.47e5,62154,3.11e5,1.43e5,inactive
Or65c,DRSC21312,6.47e5,7.78e5,1.03e6,1.06e6,inactive
Srg3,DRSC08984,1.48e5,2.13e5,5.69e5,6.47e5,inactive
Srg3,DRSC10178,2.50e5,2.52e5,2.84e6,1.53e6,inactive
boly,DRSC21629,8.80e5,6.47e5,2.89e6,1.87e6,inactive
CG14322,DRSC14801,36334,18212,5.75e5,5.32e5,inactive
Tmtc3,DRSC04444,6.78e5,5.72e5,2.00e6,1.63e6,inactive
CG17258,DRSC00495,1.10e5,1.59e5,1.21e6,1.18e6,inactive
CG17258,DRSC22709,6.20e5,7.41e5,1.12e6,1.49e6,inactive
CG17258,DRSC28524,2.86e5,4.92e5,1.19e6,1.74e6,inactive

Next part; the last 8 above are carried over.
target,dsRNA,"firefly reporter light, replicate 1","firefly reporter light, replicate 2","Renilla control light, replicate 1","Renilla control light, replicate 2",activity call
Srg3,DRSC08984,1.48e5,2.13e5,5.69e5,6.47e5,inactive
Srg3,DRSC10178,2.50e5,2.52e5,2.84e6,1.53e6,inactive
boly,DRSC21629,8.80e5,6.47e5,2.89e6,1.87e6,inactive
CG14322,DRSC14801,36334,18212,5.75e5,5.32e5,inactive
Tmtc3,DRSC04444,6.78e5,5.72e5,2.00e6,1.63e6,inactive
CG17258,DRSC00495,1.10e5,1.59e5,1.21e6,1.18e6,inactive
CG17258,DRSC22709,6.20e5,7.41e5,1.12e6,1.49e6,inactive
CG17258,DRSC28524,2.86e5,4.92e5,1.19e6,1.74e6,inactive
ATPsynCF6L,DRSC08232,1.90e5,2.01e5,2.54e6,3.18e6,inactive
ATPsynCF6L,DRSC27341,3.01e5,2.86e5,6.42e5,7.98e5,inactive
mEFTu2,DRSC06163,9.25e5,5.94e5,2.80e6,2.51e6,inactive
l(2)34Fd,DRSC01911,7.45e5,9.21e5,1.44e6,1.89e6,inactive
hppy,DRSC07014,1.34e5,1.26e5,1.39e6,1.76e6,inactive
hppy,DRSC07015,1.09e5,1.95e5,1.83e6,2.17e6,inactive
hppy,DRSC07016,76478,65037,7.57e5,9.22e5,inactive
hppy,DRSC28168,5.38e5,4.21e5,1.27e6,1.39e6,inactive
CG31496,DRSC12547,3.95e5,4.18e5,2.49e6,3.37e6,inactive
CG31496,DRSC27899,5.68e5,3.86e5,1.79e6,1.23e6,inactive
kek4,DRSC03220,6.58e5,6.90e5,1.96e6,2.00e6,inactive
CR43670 + grp + CR43671 + 1 more,DRSC03541,7.20e5,8.59e5,1.06e6,1.37e6,inactive
Mst57Db,DRSC21551,7.92e5,7.67e5,2.12e6,1.67e6,inactive
CG15480,DRSC02490,2.04e5,2.33e5,2.23e6,1.91e6,inactive
CG15480,DRSC24919,6.04e5,4.97e5,8.62e5,8.09e5,inactive
Cyp4e2,DRSC07371,1.30e6,5.88e5,1.77e6,7.40e5,inactive
CG11986,DRSC14461,37526,69297,3.27e5,3.54e5,inactive
CG11986,DRSC24504,9.02e5,1.04e6,1.03e6,1.12e6,inactive
mRpS35,DRSC08551,55568,88565,6.13e5,8.54e5,inactive
Fpgs1,DRSC19857,4.74e5,6.38e5,3.75e6,4.61e6,inactive
Fpgs1,DRSC25579,5.97e5,7.15e5,6.42e5,7.02e5,inactive
CG8192,DRSC24995,1.19e6,1.08e6,9.83e5,9.47e5,inactive
Muc96D,DRSC23213,4.50e5,4.48e5,1.29e6,1.45e6,inactive
Muc96D,DRSC28500,2.25e5,4.71e5,7.45e5,1.14e6,inactive
E2f1,DRSC16655,2.57e5,2.09e5,2.70e6,2.53e6,inactive
E2f1,DRSC29572,2.79e5,4.51e5,5.07e5,5.07e5,inactive
CG3515,DRSC00609,91531,73406,7.24e5,6.81e5,inactive
Cpr76Bc,DRSC11062,1.80e5,1.45e5,2.84e6,1.79e6,inactive
Cpr76Bc,DRSC27478,4.35e5,4.81e5,3.58e5,8.62e5,inactive
Tsp42Ee,DRSC05947,4.27e5,6.25e5,2.10e6,1.60e6,inactive
Tsp42Ee,DRSC29024,4.74e5,4.36e5,1.43e6,1.48e6,inactive
CG34462,DRSC10768,1.31e5,1.73e5,1.91e6,1.39e6,inactive
CG34462,DRSC25352,9.15e5,1.11e6,8.63e5,1.05e6,inactive
CG10866,DRSC08171,1.13e5,1.57e5,1.01e6,1.95e6,inactive
CG10866,DRSC29672,2.35e5,4.25e5,6.27e5,6.27e5,inactive
CG32536,DRSC28001,5.95e5,3.87e5,1.81e6,9.64e5,inactive
gb,DRSC15961,1.21e5,95723,8.57e5,7.17e5,inactive
gb,DRSC24834,5.96e5,1.13e6,9.02e5,7.49e5,inactive
Cbl,DRSC10764,2.38e5,2.75e5,3.14e6,2.33e6,inactive
Cbl,DRSC11111,90230,1.12e5,1.56e6,1.31e6,inactive
Cbl,DRSC28169,5.45e5,4.06e5,1.65e6,1.53e6,inactive
RpL15,DRSC20963,1.37e5,1.17e5,3.65e5,2.26e5,inactive
scramb2,DRSC08543,1.39e5,79885,2.26e6,1.61e6,inactive
scramb2,DRSC26609,2.90e5,2.48e5,6.50e5,5.50e5,inactive
Drak,DRSC19778,2.95e5,3.12e5,1.78e6,1.51e6,inactive
Drak,DRSC23298,5.57e5,4.85e5,5.76e5,6.60e5,inactive
Drak,DRSC28871,3.74e5,3.09e5,6.82e5,6.77e5,active
Drak,DRSC36990,,,,,inactive
CG6495,DRSC01993,6.46e5,2.91e5,1.42e6,1.12e6,inactive
CG6495,DRSC29128,8.35e5,1.31e6,1.18e6,1.47e6,inactive
